We go through two molecules from paper PMC9352874.

Sequences of proteins named here, by UniProt entry; tags and fusion partners are left off.
UniProt O95863: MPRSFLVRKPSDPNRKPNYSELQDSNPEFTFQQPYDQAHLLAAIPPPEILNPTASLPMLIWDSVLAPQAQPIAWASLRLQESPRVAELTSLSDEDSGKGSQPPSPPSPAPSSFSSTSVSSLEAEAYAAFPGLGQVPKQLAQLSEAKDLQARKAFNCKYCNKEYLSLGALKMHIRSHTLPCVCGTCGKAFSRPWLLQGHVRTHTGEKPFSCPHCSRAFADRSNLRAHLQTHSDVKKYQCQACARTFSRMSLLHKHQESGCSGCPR

The target of experiment [1] is T1, DUB3 (UniProt Q6R6M4).
T1 sequence: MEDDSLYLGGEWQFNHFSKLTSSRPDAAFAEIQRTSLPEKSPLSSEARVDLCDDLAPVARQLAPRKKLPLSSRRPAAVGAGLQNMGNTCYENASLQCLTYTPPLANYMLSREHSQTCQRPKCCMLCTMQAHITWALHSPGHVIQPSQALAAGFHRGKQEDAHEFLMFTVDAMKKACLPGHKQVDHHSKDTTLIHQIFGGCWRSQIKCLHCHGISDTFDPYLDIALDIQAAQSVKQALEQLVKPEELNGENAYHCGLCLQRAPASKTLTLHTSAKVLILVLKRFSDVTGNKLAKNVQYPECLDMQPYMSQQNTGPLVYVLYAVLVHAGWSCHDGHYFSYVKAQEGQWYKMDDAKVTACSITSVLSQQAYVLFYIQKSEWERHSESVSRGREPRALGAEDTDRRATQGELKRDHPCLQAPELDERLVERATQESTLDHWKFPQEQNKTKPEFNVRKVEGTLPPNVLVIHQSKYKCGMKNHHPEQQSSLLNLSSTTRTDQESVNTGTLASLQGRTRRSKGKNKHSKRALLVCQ
Kind of experiment: co-IP; total lysates of cells with or without NXN overexpression, cells treated with MG132; IP with anti-DUB3 or anti-Snail Ab, Western blot. For orientation: In western blotting, separated proteins are transferred to a membrane and probed.

For experiment [2], the target named is T1, DUB3. Nature of the experiment: co-IP; 293 T and PLC-8024 cells lysed with RIPA lysis buffer; antibody incubated with the lysates at 4 °C overnight, Protein A/G-Agarose beads, Western blot.
A further experiment deals with T2, nucleoredoxin (NXN) (UniProt Q6DKJ4).
T2 sequence: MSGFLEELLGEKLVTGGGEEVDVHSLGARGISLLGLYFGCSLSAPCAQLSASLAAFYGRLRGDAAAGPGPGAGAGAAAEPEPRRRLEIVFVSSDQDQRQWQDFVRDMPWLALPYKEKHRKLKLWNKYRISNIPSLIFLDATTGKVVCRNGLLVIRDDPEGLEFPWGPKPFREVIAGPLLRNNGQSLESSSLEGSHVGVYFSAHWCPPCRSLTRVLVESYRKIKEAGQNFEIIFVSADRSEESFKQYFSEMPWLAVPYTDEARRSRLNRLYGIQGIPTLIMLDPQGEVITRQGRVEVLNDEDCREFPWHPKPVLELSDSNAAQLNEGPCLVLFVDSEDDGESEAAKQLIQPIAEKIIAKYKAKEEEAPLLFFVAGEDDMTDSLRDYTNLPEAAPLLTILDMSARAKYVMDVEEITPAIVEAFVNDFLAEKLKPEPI
Described as above.

The target of the next experiment is Snail (encoded by SNAI1) (UniProt O95863). The description is as above.

Results are given in words; binding and its absence hold for the method and conditions named. Binding seen in cells or lysates may run through a third protein. Some results given as binding are weak or reduced against the parent protein; the word gives no strength.

As to “Snail (encoded by SNAI1) (from UniProt O95863 1-264)”, the binding result with DUB3 [1] is “binds”; with DUB3 [2], “binds”; with nucleoredoxin (NXN) it was “no binding”.

B1: nucleoredoxin (NXN) (protein, UniProt Q6DKJ4 1-435)
chain: T2 sequence
In the case of B1, the binding entry with DUB3 [2] is “binds”; with Snail (encoded by SNAI1), “no binding”.
